To fix the notation:
B1: HA-tagged THOC5 (protein, UniProt Q13769 1-683)
chain: MSSESSKKRKPKVIRSDGAPAEGKRNRSDTEQEGKYYSEEAEVDLRDPGRDYELYKYTCQELQRLMAEIQDLKSRGGKDVAIEIEERRIQSCVHFMTLKKLNRLAHIRLKKGRDQTHEAKQKVDAYHLQLQNLLYEVMHLQKEITKCLEFKSKHEEIDLVSLEEFYKEAPPDISKAEVTMGDPHQQTLARLDWELEQRKRLAEKYRECLSNKEKILKEIEVKKEYLSSLQPRLNSIMQASLPVQEYLFMPFDQAHKQYETARHLPPPLYVLFVQATAYGQACDKTLSVAIEGSVDEAKALFKPPEDSQDDESDSDAEEEQTTKRRRPTLGVQLDDKRKEMLKRHPLSVMLDLKCKDDSVLHLTFYYLMNLNIMTVKAKVTTAMELITPISAGDLLSPDSVLSCLYPGDHGKKTPNPANQYQFDKVGILTLSDYVLELGHPYLWVQKLGGLHFPKEQPQQTVIADHSLSASHMETTMKLLKTRVQSRLALHKQFASLEHGIVPVTSDCQYLFPAKVVSRLVKWVTVAHEDYMELHFTKDIVDAGLAGDTNLYYMALIERGTAKLQAAVVLNPGYSSIPPVFQLCLNWKGEKTNSNDDNIRAMEGEVNVCYKELCGPWPSHQLLTNQLQRLCVLLDVYLETESHDDSVEGPKEFPQEKMCLRLFRGPSRMKPFKYNHPQGFFSHR
B2: HA-tagged THOC1 (protein, UniProt Q96FV9 1-657)
chain: MSPTPPLFSLPEARTRFTKSTREALNNKNIKPLLSTFSQVPGSENEKKCTLDQAFRGILEEEIINHSSCENVLAIISLAIGGVTEGICTASTPFVLLGDVLDCLPLDQCDTIFTFVEKNVATWKSNTFYSAGKNYLLRMCNDLLRRLSKSQNTVFCGRIQLFLARLFPLSEKSGLNLQSQFNLENVTVFNTNEQESTLGQKHTEDREEGMDVEEGEMGDEEAPTTCSIPIDYNLYRKFWSLQDYFRNPVQCYEKISWKTFLKYSEEVLAVFKSYKLDDTQASRKKMEELKTGGEHVYFAKFLTSEKLMDLQLSDSNFRRHILLQYLILFQYLKGQVKFKSSNYVLTDEQSLWIEDTTKSVYQLLSENPPDGERFSKMVEHILNTEENWNSWKNEGCPSFVKERTSDTKPTRIIRKRTAPEDFLGKGPTKKILMGNEELTRLWNLCPDNMEACKSETREHMPTLEEFFEEAIEQADPENMVENEYKAVNNSNYGWRALRLLARRSPHFFQPTNQQFKSLPEYLENMVIKLAKELPPPSEEIKTGEDEDEEDNDALLKENESPDVRRDKPVTGEQIEVFANKLGEQWKILAPYLEMKDSEIRQIECDSEDMKMRAKQLLVAWQDQEGVHATPENLINALNKSGLSDLAESLTNDNETNS
B3: HA-tagged THOC7 (protein, UniProt Q6I9Y2 1-204)
chain: MGAVTDDEVIRKRLLIDGDGAGDDRRINLLVKSFIKWCNSGSQEEGYSQYQRMLSTLSQCEFSMGKTLLVYDMNLREMENYEKIYKEIECSIAGAHEKIAECKKQILQAKRIRKNRQEYDALAKVIQHHPDRHETLKELEALGKELEHLSHIKESVEDKLELRRKQFHVLLSTIHELQQTLENDEKLSEVEEAQEASMETDPKP
B4: HA-tagged THOC3 (protein, UniProt Q96J01-1 1-351)
chain: MAVPAAAMGPSALGQSGPGSMAPWCSVSSGPSRYVLGMQELFRGHSKTREFLAHSAKVHSVAWSCDGRRLASGSFDKTASVFLLEKDRLVKENNYRGHGDSVDQLCWHPSNPDLFVTASGDKTIRIWDVRTTKCIATVNTKGENINICWSPDGQTIAVGNKDDVVTFIDAKTHRSKAEEQFKFEVNEISWNNDNNMFFLTNGNGCINILSYPELKPVQSINAHPSNCICIKFDPMGKYFATGSADALVSLWDVDELVCVRCFSRLDWPVRTLSFSHDGKMLASASEDHFIDIAEVETGDKLWEVQCESPTFTVAWHPKRPLLAFACDDKDGKYDSSREAGTVKLFGLPNDS

The chains behind the UniProt entries cited, without tags or fusion partners. Where a name states a change or a piece, a line headed by the entry shows the natural chain unless it says otherwise. A line that says so, or that is headed by a name, gives the form on record, which may keep a tag or linker.
UniProt Q96PV6: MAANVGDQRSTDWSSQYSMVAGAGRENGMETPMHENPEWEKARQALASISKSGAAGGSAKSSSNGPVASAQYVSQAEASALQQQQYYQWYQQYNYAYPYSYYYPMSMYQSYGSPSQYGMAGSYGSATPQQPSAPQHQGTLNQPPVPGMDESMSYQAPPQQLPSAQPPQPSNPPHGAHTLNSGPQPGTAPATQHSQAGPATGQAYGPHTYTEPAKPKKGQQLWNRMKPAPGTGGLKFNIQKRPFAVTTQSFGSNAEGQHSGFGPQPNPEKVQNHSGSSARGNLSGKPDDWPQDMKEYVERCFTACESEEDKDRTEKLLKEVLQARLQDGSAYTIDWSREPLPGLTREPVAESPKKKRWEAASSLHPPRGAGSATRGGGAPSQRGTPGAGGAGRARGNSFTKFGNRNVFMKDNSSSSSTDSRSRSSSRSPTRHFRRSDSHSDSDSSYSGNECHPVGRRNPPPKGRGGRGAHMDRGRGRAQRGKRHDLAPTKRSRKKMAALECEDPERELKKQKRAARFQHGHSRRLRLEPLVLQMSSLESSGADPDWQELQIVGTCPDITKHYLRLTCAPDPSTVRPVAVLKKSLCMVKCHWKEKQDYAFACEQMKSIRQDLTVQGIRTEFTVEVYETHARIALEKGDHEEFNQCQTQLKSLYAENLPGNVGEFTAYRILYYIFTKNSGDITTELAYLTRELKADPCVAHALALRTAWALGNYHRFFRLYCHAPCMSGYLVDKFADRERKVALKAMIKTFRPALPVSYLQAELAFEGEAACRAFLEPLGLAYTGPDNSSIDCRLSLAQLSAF
HA-tagged THOC6 (Q86W42-3, form named): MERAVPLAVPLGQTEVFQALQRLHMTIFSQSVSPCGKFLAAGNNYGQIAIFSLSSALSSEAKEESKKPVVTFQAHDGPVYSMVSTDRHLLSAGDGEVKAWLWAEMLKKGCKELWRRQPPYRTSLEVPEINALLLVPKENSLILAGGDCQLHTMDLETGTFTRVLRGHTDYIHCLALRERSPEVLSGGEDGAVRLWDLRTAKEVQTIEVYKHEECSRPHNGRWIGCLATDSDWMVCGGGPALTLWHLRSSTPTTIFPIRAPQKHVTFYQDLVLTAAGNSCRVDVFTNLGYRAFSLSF

These are yes or no findings as the source states them, for the method shown. In cells and extracts the contact can be indirect. Some results given as binding are weak or reduced against the parent protein; the word gives no strength. Where a sequence is shown, tags or fusion partners need not be part of it.

The test deals with FLAG-tagged LENG8 (Leukocyte Receptor Cluster Member 8) (human) (UniProt Q96PV6). As to the kind of experiment: co-IP.
For the molecule “HA-tagged THOC6 (from UniProt Q86W42-3 1-296)”, the binding result is “binds”.

Regarding B1, the binding result is “binds”.

On to B2, for which the binding result was “binds”.

On to B3, for which the binding entry is “no binding”.

Take B4: the binding result is “no binding”.
